# Results are given in words; binding and its absence hold for the method and conditions named. Some results given as binding are weak or reduced against the parent protein; the word gives no strength. Where a sequence is shown, tags or fusion partners need not be part of it.
# T1: TARGET OF MONOPTEROS 5 (TMO5), Gal4 fusion for yeast two-hybrid and three-hybrid (Arabidopsis) (UniProt Q9LS08)
# T1 sequence: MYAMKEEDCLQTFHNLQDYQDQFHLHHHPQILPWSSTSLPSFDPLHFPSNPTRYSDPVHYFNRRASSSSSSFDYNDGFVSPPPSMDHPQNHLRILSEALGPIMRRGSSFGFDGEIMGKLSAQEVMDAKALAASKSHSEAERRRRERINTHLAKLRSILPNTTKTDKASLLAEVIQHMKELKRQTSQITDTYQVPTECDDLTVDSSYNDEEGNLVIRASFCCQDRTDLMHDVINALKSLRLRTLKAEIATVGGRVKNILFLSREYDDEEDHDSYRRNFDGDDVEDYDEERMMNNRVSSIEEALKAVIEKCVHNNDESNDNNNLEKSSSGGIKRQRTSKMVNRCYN
# T2: TMO5-EGFP-FKBP (Arabidopsis) (UniProt Q9LS08)
# T2 sequence: T1 sequence
# T3: LONESOME HIGHWAY (LHW), Gal4 fusion for yeast two-hybrid and three-hybrid (Arabidopsis) (UniProt Q9XIN0)
# T3 sequence: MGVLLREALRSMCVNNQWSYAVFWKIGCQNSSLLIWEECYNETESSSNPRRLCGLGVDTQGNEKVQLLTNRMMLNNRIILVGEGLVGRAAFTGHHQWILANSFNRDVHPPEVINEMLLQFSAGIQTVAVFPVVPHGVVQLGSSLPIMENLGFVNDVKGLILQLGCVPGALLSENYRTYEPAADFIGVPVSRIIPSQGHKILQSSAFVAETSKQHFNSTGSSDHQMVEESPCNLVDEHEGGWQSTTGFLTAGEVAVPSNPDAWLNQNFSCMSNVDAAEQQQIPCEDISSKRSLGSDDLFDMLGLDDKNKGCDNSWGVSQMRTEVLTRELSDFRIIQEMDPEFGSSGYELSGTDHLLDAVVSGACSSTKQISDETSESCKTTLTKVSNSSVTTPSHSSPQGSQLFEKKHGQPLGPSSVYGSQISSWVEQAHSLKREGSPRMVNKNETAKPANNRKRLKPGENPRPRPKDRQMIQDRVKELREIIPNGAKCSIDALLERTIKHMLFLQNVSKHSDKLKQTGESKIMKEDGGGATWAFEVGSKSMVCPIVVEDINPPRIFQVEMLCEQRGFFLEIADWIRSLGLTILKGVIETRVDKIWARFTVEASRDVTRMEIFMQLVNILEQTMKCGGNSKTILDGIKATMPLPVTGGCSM
# B1: MYB12, Gal4 fusion for yeast two-hybrid (protein, UniProt O22264 1-371)
# chain: MGRAPCCEKVGIKRGRWTAEEDQILSNYIQSNGEGSWRSLPKNAGLKRCGKSCRLRWINYLRSDLKRGNITPEEEELVVKLHSTLGNRWSLIAGHLPGRTDNEIKNYWNSHLSRKLHNFIRKPSISQDVSAVIMTNASSAPPPPQAKRRLGRTSRSAMKPKIHRTKTRKTKKTSAPPEPNADVAGADKEALMVESSGAEAELGRPCDYYGDDCNKNLMSINGDNGVLTFDDDIIDLLLDESDPGHLYTNTTCGGDGELHNIRDSEGARGFSDTWNQGNLDCLLQSCPSVESFLNYDHQVNDASTDEFIDWDCVWQEGSDNNLWHEKENPDSMVSWLLDGDDEATIGNSNCENFGEPLDHDDESALVAWLLS
# B2: MYB12-TagBFP2 (protein, UniProt O22264 1-371)
# chain: B1 chain
# B3: TARGET OF MONOPTEROS 5 (TMO5), Gal4 fusion for yeast two-hybrid and three-hybrid (protein, UniProt Q9LS08 1-344)
# chain: T1 sequence
# How the values were obtained:
# [1] = target: T1, TARGET OF MONOPTEROS 5 (TMO5), Gal4 fusion for yeast two-hybrid and three-hybrid (Arabidopsis); assay: two-hybrid
# [2] = target: T2, TMO5-EGFP-FKBP (Arabidopsis); assay: knock sideways
# [3] = target: T3, LONESOME HIGHWAY (LHW), Gal4 fusion for yeast two-hybrid and three-hybrid (Arabidopsis); assay: two-hybrid
binder,measurement,setting,value
B1,binding,[1],binds
B2,binding,[2],binds
B3,binding,[3],binds

# Reference: paper doi:10.1101/2022.03.08.483486
